Source: article PMC11266670
No constants are given. Whether binding was seen depends on the method and setting. Binding seen in cells or lysates may run through a third protein. Here binding means that the protein was enriched with, or labelled near, the bait; the list need not be complete. A no says only that the protein was not detected with the bait.

Protein sequences, listed by entry. Tags and fused reporters are not part of them. Lines headed by an entry give the natural chain unless they say otherwise; changes in a name come on top.
UniProt Q62280: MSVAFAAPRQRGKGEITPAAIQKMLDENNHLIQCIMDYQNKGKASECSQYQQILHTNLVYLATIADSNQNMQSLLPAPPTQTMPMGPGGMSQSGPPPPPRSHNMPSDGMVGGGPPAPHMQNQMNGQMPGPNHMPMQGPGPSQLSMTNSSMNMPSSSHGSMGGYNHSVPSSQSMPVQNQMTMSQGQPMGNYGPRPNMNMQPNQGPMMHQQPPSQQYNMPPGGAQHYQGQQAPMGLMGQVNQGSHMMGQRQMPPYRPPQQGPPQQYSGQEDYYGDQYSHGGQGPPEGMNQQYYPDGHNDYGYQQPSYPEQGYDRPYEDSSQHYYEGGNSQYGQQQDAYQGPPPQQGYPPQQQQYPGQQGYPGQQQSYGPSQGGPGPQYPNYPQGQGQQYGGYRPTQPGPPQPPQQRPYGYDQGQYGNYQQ
UniProt Q61466: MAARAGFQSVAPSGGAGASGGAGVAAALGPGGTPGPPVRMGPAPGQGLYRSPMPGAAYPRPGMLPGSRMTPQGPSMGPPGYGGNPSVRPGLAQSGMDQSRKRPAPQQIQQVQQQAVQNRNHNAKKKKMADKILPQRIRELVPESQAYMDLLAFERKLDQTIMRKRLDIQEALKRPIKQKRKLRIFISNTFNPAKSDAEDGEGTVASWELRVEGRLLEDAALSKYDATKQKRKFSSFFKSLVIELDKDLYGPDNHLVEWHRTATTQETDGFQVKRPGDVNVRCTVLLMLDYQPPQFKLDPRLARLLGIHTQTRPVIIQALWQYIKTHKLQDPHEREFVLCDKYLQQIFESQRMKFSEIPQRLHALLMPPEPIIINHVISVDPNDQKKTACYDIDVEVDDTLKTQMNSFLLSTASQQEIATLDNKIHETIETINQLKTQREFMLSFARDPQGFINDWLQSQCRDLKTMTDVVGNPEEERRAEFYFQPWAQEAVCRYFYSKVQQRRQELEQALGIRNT
UniProt P97496: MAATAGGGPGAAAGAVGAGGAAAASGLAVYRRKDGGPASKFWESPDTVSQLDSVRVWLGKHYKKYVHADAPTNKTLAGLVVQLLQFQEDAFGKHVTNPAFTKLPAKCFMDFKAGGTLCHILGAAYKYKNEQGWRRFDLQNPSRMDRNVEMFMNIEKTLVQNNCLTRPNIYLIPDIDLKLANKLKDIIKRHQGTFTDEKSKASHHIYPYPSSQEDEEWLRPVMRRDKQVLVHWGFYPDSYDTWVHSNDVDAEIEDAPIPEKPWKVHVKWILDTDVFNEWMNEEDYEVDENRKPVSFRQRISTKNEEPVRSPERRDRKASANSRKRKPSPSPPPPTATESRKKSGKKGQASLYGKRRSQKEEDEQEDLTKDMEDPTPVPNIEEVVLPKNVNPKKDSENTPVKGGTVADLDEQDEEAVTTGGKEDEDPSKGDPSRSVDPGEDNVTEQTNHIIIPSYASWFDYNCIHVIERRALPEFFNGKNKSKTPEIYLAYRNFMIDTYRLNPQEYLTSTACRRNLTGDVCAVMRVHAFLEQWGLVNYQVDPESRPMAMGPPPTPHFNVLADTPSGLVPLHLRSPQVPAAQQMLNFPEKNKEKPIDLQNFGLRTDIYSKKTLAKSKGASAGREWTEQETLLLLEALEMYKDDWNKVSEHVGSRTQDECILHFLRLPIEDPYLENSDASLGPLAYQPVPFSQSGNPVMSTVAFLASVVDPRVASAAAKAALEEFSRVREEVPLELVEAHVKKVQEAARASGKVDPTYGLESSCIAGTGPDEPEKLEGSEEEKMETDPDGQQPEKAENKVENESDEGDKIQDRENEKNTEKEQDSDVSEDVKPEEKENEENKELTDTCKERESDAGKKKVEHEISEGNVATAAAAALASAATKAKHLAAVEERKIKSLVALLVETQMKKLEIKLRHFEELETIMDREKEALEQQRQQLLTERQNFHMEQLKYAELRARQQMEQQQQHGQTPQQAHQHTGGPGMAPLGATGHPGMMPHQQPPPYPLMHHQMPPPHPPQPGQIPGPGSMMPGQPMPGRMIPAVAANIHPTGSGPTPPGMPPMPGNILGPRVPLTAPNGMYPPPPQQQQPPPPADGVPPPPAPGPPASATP
UniProt O54941: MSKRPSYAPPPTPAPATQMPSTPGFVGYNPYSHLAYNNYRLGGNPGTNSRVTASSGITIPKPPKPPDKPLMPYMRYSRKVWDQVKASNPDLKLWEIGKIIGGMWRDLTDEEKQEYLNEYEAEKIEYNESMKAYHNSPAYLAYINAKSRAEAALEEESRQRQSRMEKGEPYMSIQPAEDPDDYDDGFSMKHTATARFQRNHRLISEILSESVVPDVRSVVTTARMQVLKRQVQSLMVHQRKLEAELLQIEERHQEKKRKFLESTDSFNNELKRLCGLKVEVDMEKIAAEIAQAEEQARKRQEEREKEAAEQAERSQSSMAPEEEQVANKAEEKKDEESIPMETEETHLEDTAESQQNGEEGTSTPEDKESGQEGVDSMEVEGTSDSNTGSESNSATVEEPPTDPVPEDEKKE
UniProt E9Q4N7: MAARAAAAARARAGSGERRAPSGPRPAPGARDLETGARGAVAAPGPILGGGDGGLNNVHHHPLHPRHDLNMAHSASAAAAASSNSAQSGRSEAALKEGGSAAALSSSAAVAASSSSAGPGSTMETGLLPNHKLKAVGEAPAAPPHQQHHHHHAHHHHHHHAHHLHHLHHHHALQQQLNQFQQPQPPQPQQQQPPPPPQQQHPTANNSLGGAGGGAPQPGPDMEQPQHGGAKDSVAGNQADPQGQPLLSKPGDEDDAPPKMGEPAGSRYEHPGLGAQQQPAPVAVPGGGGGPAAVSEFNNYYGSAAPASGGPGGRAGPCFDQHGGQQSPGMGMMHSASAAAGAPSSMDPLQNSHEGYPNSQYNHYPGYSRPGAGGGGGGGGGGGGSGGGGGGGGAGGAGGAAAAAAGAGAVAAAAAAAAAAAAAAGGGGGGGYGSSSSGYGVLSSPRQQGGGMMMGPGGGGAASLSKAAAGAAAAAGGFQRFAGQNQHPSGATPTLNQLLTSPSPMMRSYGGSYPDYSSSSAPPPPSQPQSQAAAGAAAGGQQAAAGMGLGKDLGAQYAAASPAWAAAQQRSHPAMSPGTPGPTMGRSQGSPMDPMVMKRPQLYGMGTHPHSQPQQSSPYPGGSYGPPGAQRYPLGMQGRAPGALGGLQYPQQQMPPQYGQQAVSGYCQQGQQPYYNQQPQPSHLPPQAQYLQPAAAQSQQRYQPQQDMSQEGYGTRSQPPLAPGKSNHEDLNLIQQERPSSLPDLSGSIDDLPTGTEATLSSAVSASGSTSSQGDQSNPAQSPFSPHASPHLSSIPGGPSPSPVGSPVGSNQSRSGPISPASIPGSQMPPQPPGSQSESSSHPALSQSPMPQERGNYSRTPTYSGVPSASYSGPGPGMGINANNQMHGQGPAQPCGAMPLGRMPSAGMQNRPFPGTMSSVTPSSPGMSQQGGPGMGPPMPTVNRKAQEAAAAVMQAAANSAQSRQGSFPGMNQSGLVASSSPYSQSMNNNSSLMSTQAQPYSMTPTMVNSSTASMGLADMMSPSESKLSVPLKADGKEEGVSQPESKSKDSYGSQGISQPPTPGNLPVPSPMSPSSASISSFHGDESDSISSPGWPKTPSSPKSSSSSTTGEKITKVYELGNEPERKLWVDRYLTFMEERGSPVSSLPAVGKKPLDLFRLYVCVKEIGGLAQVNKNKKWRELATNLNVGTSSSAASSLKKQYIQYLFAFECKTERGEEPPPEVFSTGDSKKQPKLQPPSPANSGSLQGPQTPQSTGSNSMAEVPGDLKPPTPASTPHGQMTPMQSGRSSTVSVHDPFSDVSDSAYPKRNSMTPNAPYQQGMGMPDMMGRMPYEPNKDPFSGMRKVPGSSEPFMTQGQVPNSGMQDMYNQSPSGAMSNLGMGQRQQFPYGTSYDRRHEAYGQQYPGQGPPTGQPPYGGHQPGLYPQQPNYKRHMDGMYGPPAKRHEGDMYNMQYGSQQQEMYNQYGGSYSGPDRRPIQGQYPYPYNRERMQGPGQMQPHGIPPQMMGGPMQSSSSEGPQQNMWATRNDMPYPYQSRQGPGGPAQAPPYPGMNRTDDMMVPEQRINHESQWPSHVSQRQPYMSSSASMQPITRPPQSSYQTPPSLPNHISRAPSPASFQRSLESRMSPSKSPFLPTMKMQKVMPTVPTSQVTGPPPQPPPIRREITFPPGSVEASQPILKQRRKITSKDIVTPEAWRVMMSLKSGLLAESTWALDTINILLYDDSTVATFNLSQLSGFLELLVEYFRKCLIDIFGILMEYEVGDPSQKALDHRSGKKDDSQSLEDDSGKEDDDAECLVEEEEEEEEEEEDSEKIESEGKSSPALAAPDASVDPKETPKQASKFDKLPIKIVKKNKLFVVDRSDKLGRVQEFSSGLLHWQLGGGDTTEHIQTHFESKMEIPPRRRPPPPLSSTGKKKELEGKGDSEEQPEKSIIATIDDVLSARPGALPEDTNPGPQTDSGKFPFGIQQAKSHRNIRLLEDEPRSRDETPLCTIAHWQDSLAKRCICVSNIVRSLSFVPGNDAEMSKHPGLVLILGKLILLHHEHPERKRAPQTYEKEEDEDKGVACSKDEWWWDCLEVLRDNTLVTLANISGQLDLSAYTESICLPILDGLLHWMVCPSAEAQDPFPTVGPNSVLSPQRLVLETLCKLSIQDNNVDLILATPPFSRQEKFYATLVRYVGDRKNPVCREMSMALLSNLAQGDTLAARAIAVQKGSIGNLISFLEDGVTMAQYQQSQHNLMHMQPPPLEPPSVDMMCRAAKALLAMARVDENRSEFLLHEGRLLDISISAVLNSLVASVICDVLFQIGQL
UniProt F8VPZ9: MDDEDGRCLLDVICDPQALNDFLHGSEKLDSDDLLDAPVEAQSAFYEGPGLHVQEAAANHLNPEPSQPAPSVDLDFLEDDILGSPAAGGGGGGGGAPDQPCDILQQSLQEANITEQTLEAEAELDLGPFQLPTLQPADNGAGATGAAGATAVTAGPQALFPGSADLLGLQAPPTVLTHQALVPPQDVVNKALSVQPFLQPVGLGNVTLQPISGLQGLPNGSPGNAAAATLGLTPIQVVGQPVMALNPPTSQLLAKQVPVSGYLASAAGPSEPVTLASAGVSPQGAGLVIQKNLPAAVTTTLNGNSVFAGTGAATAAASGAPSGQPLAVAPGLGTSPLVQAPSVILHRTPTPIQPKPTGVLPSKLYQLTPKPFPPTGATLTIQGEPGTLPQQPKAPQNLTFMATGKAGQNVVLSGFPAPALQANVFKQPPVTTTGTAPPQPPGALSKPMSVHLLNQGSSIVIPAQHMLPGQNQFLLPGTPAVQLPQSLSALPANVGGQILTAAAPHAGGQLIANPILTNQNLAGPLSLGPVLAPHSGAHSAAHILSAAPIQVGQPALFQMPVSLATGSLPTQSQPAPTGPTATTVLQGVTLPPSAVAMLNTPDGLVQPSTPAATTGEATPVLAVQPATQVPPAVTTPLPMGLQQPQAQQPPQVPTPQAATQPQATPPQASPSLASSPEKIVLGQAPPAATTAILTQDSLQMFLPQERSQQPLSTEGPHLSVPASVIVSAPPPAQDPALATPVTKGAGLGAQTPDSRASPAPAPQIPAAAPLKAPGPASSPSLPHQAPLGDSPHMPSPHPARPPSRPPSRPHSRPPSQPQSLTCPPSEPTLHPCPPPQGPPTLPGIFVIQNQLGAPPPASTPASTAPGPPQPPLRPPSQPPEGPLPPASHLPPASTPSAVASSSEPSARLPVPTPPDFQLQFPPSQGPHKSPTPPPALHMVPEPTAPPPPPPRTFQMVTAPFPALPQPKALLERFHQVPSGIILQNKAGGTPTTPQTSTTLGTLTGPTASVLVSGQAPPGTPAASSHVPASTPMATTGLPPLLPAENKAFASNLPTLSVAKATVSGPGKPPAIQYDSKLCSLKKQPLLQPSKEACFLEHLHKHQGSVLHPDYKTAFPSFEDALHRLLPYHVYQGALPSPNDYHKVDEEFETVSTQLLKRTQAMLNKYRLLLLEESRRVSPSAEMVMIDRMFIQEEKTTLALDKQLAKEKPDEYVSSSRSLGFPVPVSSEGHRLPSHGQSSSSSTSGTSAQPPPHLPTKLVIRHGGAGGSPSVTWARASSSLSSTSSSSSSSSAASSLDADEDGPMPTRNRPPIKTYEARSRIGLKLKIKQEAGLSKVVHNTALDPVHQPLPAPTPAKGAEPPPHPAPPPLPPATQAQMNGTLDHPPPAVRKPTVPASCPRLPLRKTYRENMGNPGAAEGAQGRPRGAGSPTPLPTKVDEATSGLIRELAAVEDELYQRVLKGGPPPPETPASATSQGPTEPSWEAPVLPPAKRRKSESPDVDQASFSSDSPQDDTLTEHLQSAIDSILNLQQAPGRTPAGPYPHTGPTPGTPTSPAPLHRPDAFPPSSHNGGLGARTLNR

B1: BRD7 (protein, UniProt O88665 1-651)
chain: MGKKHKKHKSDRHFYEEYVEKPLKLVLKVGGSEVTELSTGSSGHDSSLFEDRSDHDKHKDRKRKKRKKGEKQAPGEEKGRKRRRVKEDKKKRDRDRAENEVDRDLQCHVPIRLDLPPEKPLTSSLAKQEEVEQTPLQEALNQLMRQLQRKDPSAFFSFPVTDFIAPGYSMIIKHPMDFSTMKEKIKNNDYQSIEELKDNFKLMCTNAMIYNKPETIYYKAAKKLLHSGMKILSQERIQSLKQSIDFMSDLQKTRKQKERTDACQSGEDSGCWQREREDSGDAETQAFRSPAKDNKRKDKDVLEDKWRSSNSEREHEQIERVVQESGGKLTRRLANSQCEFERRKPDGTTTLGLLHPVDPIVGEPGYCPVRLGMTTGRLQSGVNTLQGFKEDKRNRVTPVLYLNYGPYSSYAPHYDSTFANISKDDSDLIYSTYGEDSDLPNNFSISEFLATCQDYPYVMADSLLDVLTKGGHSRSLQDLDMSSPEDEGQTRALDTAKEAEITQIEPTGRLESSSQDRLTALQAVTTFGAPAEVFDSEEAEVFQRKLDETTRLLRELQEAQNERLSTRPPPNMICLLGPSYREMYLAEQVTNNLKELTQQVTPGDVVSIHGVRKAMGISVPSPIVGNSFVDLTGECEEPKETSTAECGPDAS
B2: PHF10 (protein, UniProt Q9D8M7 1-497)
chain: MTAAGPGAAPSPGRCDSDPASPGAQSPKDDNEDNSNDGTHPCKRRRMGSGDSSRSCETSSQDLSFSYYPAENLIEYKWPPDETGEYYMLQEQVSEYLGVTSFKRKYPDLERRDLSHKEKLYLRELNVITETQCTLGLTALRSDEVIDLMIKEYPAKHAEYSVILQEKERQRITDHYKEYSQMQQQSTQKVEASKVPEYIKKAAKKAAEFNSNLNRERMEERRAYFDLQTHVIQVPQGKYKVLPTDRTKVSSYPVALIPGQFQEYYKRYSPDELRYLPLNTALYEPPLDPELPALDSDGDSDDGEDGGGDEKRKNKGTSDSSSGNVSEGDSPPDSQEDTFHGRQKSKDKMATPRKDGSKRSVLSKSAPGYKPKVIPNALCGICLKGKESNKKGKAESLIHCSQCDNSGHPSCLDMTMELVSMIKTYPWQCMECKTCIICGQPHHEEEMMFCDVCDRGYHTFCVGLGAIPSGRWICDCCQRAPPTPRKVGRRGKNSKEG

These molecules were tested against Nanog^BiD (UniProt Q62280) (assay: affinity purification with mass spectrometry; FLAG pull-down from MEFs reprogramming with Nanog^BiD or Nanog^WT plus Oct4 for 1 day, two replicates; label-free quantification (MaxQuant, DEP); differential analysis Nanog^BiD against Nanog^WT).

binding | Molecule
no binding | PBRM1 (from UniProt Q8BSQ9 1-1634)
binds | SMARCD1 (from UniProt Q61466 1-515)
binds | SMARCD3 (from UniProt Q6P9Z1 1-483)
binds | SMARCC1 (from UniProt P97496 1-1104)
binds | SMARCE1 (from UniProt O54941 1-411)
binds | ARID1B (from UniProt E9Q4N7 1-2306)
no binding | GLTSCR1 (from UniProt F8VPZ9 1-1578)
binds | ARID1A (from UniProt A2BH40 1-2283)
no binding | B1
no binding | B2
